Experimental data reported in the supplement of paper PMC10849652.
This is one part of the list.

Chains of the proteins cited; added tags and fusions are not shown. Lines headed by an entry give the natural chain unless they say otherwise; changes in a name come on top.
UniProt P53611: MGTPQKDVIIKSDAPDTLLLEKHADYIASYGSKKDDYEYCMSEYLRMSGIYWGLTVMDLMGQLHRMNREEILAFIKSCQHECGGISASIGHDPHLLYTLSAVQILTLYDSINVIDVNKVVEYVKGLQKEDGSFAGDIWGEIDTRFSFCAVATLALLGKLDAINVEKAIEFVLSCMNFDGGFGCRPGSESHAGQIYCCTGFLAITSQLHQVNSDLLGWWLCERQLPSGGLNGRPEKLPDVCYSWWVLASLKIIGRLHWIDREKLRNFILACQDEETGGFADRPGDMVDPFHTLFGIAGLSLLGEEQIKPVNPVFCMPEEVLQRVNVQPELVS
UniProt Q96S59, whole entry, looked up: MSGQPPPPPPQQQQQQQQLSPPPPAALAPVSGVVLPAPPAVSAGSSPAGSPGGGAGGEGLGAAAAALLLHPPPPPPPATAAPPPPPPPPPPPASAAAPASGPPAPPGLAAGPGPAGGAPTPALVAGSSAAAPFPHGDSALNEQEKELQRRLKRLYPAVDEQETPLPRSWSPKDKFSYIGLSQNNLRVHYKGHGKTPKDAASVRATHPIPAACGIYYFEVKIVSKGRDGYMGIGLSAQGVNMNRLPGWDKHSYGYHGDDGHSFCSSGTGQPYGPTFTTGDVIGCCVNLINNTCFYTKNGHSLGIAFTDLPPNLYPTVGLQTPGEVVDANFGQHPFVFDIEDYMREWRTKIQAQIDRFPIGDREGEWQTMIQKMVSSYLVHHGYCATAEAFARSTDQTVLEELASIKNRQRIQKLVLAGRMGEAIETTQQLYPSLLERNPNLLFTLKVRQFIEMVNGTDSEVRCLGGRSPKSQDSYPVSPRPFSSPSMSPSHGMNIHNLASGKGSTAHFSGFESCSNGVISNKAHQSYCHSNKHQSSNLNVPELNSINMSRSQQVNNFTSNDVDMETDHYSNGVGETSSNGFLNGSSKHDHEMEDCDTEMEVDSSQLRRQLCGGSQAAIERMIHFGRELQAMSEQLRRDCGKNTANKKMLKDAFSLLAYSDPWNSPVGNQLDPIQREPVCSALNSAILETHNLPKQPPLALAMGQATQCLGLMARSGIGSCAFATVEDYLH
UniProt Q92930: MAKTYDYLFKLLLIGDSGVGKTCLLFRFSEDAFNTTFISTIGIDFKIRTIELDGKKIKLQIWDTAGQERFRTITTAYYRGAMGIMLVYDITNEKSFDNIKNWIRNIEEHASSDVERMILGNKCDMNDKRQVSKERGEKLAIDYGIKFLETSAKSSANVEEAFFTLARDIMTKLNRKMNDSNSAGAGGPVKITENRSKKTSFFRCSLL
UniProt P51151: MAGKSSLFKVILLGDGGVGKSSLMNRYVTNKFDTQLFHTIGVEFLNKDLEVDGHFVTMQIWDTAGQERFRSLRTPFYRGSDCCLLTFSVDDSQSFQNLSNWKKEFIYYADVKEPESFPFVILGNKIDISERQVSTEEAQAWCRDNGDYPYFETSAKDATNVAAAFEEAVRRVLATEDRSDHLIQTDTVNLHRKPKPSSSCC
UniProt P49756, whole entry, looked up: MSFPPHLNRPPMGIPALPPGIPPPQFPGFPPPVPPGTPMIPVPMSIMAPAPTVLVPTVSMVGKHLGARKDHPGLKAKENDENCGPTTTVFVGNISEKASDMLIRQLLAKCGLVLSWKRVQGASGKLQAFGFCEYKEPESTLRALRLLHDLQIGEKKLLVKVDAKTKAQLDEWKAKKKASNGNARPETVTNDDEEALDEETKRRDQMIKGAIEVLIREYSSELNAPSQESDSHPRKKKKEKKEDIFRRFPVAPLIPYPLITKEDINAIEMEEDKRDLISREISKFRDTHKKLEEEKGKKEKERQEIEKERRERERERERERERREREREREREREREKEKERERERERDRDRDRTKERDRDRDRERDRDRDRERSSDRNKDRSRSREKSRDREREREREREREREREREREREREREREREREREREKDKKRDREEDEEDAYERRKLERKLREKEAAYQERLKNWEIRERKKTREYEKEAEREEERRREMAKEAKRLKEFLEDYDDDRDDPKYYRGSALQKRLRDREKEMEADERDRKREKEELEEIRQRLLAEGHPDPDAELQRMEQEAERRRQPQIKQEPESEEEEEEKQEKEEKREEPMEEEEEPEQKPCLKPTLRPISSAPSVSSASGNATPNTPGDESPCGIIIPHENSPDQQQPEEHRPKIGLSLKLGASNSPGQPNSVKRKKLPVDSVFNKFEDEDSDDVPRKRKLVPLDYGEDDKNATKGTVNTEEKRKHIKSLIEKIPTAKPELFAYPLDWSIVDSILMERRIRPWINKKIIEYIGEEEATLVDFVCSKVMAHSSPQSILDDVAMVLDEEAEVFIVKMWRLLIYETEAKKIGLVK
UniProt Q8TBN0: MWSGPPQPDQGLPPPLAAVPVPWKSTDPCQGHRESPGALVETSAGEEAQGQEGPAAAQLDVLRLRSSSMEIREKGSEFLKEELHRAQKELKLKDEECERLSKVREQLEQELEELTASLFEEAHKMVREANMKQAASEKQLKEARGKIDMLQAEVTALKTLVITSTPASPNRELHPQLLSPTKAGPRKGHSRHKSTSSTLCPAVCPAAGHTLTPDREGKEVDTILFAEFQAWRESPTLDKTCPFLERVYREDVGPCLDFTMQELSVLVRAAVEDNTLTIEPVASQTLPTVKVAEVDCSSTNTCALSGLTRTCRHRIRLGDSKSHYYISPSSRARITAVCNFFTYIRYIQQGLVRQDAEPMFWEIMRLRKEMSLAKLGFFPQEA
UniProt P06400: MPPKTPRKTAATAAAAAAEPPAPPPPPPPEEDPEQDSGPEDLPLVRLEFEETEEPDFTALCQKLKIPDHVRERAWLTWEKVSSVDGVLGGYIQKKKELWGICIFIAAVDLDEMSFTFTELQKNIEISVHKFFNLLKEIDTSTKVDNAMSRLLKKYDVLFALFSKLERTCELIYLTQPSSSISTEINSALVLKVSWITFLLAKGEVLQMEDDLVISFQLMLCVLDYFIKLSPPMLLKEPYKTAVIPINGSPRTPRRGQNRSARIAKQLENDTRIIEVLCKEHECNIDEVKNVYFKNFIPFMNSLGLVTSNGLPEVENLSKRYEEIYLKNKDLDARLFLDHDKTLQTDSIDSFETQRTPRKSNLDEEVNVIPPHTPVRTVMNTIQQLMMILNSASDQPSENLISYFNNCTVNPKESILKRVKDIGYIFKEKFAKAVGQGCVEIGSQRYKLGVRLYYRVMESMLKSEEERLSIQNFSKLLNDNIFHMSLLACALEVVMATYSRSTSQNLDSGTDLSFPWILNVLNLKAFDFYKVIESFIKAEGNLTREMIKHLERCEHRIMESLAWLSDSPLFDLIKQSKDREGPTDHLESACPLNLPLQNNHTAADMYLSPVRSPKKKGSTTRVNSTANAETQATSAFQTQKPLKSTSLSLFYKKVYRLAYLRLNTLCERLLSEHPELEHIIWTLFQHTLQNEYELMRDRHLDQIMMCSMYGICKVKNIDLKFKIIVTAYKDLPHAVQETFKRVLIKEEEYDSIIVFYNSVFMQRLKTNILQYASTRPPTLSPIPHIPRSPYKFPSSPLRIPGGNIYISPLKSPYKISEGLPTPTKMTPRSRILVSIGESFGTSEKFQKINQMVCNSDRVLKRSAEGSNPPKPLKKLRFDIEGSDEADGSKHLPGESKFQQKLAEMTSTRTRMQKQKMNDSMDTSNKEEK
UniProt P98179: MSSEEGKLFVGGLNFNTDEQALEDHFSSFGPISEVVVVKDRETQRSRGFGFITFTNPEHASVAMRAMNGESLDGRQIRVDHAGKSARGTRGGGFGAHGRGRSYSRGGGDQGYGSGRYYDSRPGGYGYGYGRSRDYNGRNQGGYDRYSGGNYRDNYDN
UniProt Q6GYQ0: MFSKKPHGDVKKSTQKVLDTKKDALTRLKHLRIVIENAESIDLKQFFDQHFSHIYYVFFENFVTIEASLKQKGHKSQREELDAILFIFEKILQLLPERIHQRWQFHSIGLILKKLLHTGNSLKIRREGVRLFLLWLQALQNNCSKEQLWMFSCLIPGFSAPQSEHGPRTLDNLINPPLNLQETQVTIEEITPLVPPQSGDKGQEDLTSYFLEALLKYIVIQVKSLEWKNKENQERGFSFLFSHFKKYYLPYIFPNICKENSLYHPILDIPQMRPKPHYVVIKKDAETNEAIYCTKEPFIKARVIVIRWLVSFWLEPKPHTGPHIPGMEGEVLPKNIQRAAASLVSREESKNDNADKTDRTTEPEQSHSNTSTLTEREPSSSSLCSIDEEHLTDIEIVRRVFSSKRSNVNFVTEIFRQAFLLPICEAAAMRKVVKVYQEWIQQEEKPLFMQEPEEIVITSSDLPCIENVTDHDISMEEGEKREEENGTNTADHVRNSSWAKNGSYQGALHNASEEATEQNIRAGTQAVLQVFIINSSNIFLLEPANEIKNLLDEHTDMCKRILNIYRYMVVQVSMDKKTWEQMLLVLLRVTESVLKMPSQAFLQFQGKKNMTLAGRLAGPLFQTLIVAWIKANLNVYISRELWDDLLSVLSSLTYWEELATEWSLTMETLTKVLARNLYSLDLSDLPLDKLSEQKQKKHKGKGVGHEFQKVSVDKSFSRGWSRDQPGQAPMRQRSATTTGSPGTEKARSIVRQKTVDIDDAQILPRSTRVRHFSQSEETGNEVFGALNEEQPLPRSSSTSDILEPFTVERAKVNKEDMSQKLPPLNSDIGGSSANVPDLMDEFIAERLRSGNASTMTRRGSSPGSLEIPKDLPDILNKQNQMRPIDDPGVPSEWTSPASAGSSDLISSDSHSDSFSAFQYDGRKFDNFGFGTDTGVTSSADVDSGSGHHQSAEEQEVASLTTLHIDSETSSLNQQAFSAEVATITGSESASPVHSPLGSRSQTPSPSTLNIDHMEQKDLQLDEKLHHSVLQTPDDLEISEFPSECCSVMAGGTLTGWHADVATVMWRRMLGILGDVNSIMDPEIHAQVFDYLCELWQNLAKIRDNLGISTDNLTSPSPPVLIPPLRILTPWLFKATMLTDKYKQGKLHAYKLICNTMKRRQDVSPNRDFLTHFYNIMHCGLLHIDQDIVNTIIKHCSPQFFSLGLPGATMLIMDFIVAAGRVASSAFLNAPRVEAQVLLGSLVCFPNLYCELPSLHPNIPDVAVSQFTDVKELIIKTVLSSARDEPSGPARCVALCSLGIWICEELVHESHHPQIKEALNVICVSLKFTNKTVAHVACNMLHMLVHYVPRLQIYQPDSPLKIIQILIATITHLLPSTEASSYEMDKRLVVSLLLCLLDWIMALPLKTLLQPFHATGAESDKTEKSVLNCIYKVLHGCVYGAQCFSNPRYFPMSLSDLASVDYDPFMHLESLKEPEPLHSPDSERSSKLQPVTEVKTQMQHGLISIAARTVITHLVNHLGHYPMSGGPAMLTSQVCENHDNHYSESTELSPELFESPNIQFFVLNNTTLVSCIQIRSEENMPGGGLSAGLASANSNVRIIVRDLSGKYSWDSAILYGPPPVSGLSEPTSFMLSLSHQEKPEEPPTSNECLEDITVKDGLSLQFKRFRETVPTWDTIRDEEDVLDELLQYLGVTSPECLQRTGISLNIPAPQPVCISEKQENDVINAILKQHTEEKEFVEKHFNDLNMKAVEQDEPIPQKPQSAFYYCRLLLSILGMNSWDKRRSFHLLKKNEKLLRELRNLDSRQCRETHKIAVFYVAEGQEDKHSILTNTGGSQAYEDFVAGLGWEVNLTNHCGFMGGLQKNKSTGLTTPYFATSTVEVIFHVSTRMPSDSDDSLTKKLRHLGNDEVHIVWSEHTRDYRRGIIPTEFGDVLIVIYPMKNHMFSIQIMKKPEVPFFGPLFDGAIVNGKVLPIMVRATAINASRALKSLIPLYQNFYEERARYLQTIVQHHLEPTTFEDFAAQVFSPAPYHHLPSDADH
UniProt P51148: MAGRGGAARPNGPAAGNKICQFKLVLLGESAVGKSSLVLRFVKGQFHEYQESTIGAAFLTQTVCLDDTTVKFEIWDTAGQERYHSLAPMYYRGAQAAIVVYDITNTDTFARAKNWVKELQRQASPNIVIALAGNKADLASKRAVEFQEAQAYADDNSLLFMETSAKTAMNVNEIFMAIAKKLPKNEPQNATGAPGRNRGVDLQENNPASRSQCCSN
UniProt P43487, whole entry, looked up: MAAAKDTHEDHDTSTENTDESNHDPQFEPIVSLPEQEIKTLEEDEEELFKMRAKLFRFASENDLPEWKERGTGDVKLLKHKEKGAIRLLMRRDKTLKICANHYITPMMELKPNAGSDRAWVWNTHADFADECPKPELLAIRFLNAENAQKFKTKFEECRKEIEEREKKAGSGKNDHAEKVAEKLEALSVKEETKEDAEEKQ
UniProt Q13636: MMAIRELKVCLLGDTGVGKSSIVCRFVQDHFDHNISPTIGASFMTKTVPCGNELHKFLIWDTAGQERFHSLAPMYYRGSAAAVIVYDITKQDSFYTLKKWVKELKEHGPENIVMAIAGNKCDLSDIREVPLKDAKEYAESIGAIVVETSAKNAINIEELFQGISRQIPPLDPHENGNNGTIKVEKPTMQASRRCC

Compound: CC1=NC(=CC=C1)C2=C(N=C(N2)C(C)(C)C)C3=CC4=NC=CN=C4C=C3
Test: log2 fold change, soluble protein after heating vs DMSO (PISA); higher = thermal stabilisation; K562 cells, 10 uM, 30 min; active = over 0.2 and 3.5 SD of the protein, either way, in both replicates (recomputed)
Summary of the method: (§1)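 Values are thermal stability changes relative to control samples and are taken from duplicates. They are stated as log2 fold changes. Before quantification by TMTpro 16plex LC-MS/MS with equalised channel sums, K562 cells at 2×10^6 cells/mL were treated with 10 μM compound for 30 min, heated in aliquots for 3 min across 48°C-58°C, pooled, extracted in PBS with 0.5% NP-40 at 4°C, and centrifuged at 21,000xg for 90 min to give the soluble supernatant.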

How did the log2 fold change turn out when RALB isoform 2 (UniProt P11234) was run?
The log2 fold change was inactive: 0.001.

How did the log2 fold change turn out when RACK1 (UniProt P63244) was run?
The log2 fold change was inactive: 0.064.

RAB11A (UniProt P62491) was tested. Which log2 fold change did it give?
The log2 fold change was inactive: 0.034.

How did the log2 fold change turn out when RAB3A (UniProt P20336) was run?
The log2 fold change was inactive: -0.007.

RABGGTB (UniProt P53611) was tested. Which log2 fold change did it give?
Its log2 fold change is inactive: 0.048.

How did the log2 fold change turn out when RAP1A (UniProt P62834) was run?
The log2 fold change was inactive: -0.007.

RAP1GDS1 isoform 5 (UniProt P52306) was tested. Which log2 fold change did it give?
The log2 fold change was inactive: 0.042.

With RANBP9 (UniProt Q96S59) as the target, how does the log2 fold change read?
The log2 fold change was inactive: 0.013.

How did the log2 fold change turn out when RAB8B (UniProt Q92930) was run?
The log2 fold change was inactive: 0.081.

For RAB9A (UniProt P51151), which log2 fold change is on record?
Its log2 fold change is inactive: 0.018.

With RAPGEF2, A0A2R8YGD3 as the target, how does the log2 fold change read?
The log2 fold change was inactive: -0.031.

With RBM22 (UniProt Q9NW64) as the target, how does the log2 fold change read?
The log2 fold change was inactive: -0.014.

RACK1 (UniProt D6RF23) was tested. Which log2 fold change did it give?
Its log2 fold change is inactive: -0.149.

For RABAC1 (UniProt Q9UI14), which log2 fold change is on record?
The log2 fold change was inactive: -0.031.

RBM25 (UniProt P49756) was tested. Which log2 fold change did it give?
Its log2 fold change is inactive: -0.074.

With RAB2B (UniProt Q8WUD1) as the target, how does the log2 fold change read?
Its log2 fold change is inactive: 0.028.

With RAB3IL1 (UniProt Q8TBN0) as the target, how does the log2 fold change read?
Its log2 fold change is inactive: 0.02.

With RB1 (UniProt P06400) as the target, how does the log2 fold change read?
The log2 fold change was inactive: 0.003.

Which log2 fold change does the source give for RAB4B isoform 2 (UniProt P61018) here?
The log2 fold change was inactive: 0.

Which log2 fold change does the source give for RAD18 (UniProt Q9NS91) here?
The log2 fold change was inactive: 0.063.

With RBM3 (UniProt P98179) as the target, how does the log2 fold change read?
The log2 fold change was inactive: -0.124.

For RAD21 (UniProt O60216), which log2 fold change is on record?
Its log2 fold change is inactive: -0.014.

How did the log2 fold change turn out when RAB14 (UniProt P61106) was run?
The log2 fold change was inactive: 0.012.

How did the log2 fold change turn out when RAD1 (UniProt O60671) was run?
The log2 fold change was inactive: 0.043.

For RAB6D (UniProt Q53S08), which log2 fold change is on record?
The log2 fold change was inactive: -0.072.

With RALGAPA1 isoform 6 (UniProt Q6GYQ0) as the target, how does the log2 fold change read?
Its log2 fold change is inactive: -0.042.

RAB5C isoform 2 (UniProt P51148) was tested. Which log2 fold change did it give?
Its log2 fold change is inactive: 0.01.

Which log2 fold change does the source give for RAN (UniProt P62826) here?
The log2 fold change was inactive: -0.025.

How did the log2 fold change turn out when RBBP4 (UniProt Q09028) was run?
Its log2 fold change is inactive: 0.02.

With RB1CC1 (UniProt Q8TDY2) as the target, how does the log2 fold change read?
The log2 fold change was inactive: -0.031.

RANBP1 (UniProt P43487) was tested. Which log2 fold change did it give?
The log2 fold change was inactive: 0.102.

Which log2 fold change does the source give for RAB31 (UniProt Q13636) here?
The log2 fold change was inactive: -0.021.

RBM27 (UniProt Q9P2N5) was tested. Which log2 fold change did it give?
The log2 fold change was inactive: -0.018.

Compound: CCCCN(Cc1ccc(C(=O)NO)cc1)C(=O)Nc1ccccc1 [Nexturastat A]
Test: as above
Summary of the method: as §1

RALB isoform 2 (UniProt P11234) was tested. Which log2 fold change did it give?
The log2 fold change was inactive: -0.111.

Which log2 fold change does the source give for RACK1 (UniProt P63244) here?
Its log2 fold change is inactive: -0.055.

Which log2 fold change does the source give for RAB11A (UniProt P62491) here?
The log2 fold change was inactive: -0.148.

RAB3A (UniProt P20336) was tested. Which log2 fold change did it give?
Its log2 fold change is inactive: 0.05.

RABGGTB (UniProt P53611) was tested. Which log2 fold change did it give?
Its log2 fold change is inactive: 0.023.

RAP1A (UniProt P62834) was tested. Which log2 fold change did it give?
The log2 fold change was inactive: -0.074.

RAP1GDS1 isoform 5 (UniProt P52306) was tested. Which log2 fold change did it give?
The log2 fold change was inactive: -0.023.

How did the log2 fold change turn out when RANBP9 (UniProt Q96S59) was run?
Its log2 fold change is inactive: 0.05.

RAB8B (UniProt Q92930) was tested. Which log2 fold change did it give?
The log2 fold change was inactive: -0.082.

RAB9A (UniProt P51151) was tested. Which log2 fold change did it give?
The log2 fold change was inactive: 0.017.

With RAPGEF2, A0A2R8YGD3 as the target, how does the log2 fold change read?
Its log2 fold change is inactive: 0.035.

RBM22 (UniProt Q9NW64) was tested. Which log2 fold change did it give?
Its log2 fold change is inactive: 0.052.

For RACK1 (UniProt D6RF23), which log2 fold change is on record?
Its log2 fold change is inactive: -0.138.

Which log2 fold change does the source give for RABAC1 (UniProt Q9UI14) here?
Its log2 fold change is inactive: -0.011.

RBM25 (UniProt P49756) was tested. Which log2 fold change did it give?
The log2 fold change was inactive: 0.02.

With RAB2B (UniProt Q8WUD1) as the target, how does the log2 fold change read?
The log2 fold change was inactive: -0.076.

For RAB3IL1 (UniProt Q8TBN0), which log2 fold change is on record?
Its log2 fold change is inactive: -0.124.

RB1 (UniProt P06400) was tested. Which log2 fold change did it give?
The log2 fold change was inactive: -0.1.

How did the log2 fold change turn out when RAB4B isoform 2 (UniProt P61018) was run?
Its log2 fold change is inactive: -0.065.

With RAD18 (UniProt Q9NS91) as the target, how does the log2 fold change read?
Its log2 fold change is inactive: 0.106.

With RBM3 (UniProt P98179) as the target, how does the log2 fold change read?
Its log2 fold change is inactive: 0.223.

RAD21 (UniProt O60216) was tested. Which log2 fold change did it give?
Its log2 fold change is inactive: 0.049.

How did the log2 fold change turn out when RAB14 (UniProt P61106) was run?
Its log2 fold change is inactive: -0.047.

With RAD1 (UniProt O60671) as the target, how does the log2 fold change read?
Its log2 fold change is inactive: -0.114.

For RAB6D (UniProt Q53S08), which log2 fold change is on record?
Its log2 fold change is inactive: -0.16.

How did the log2 fold change turn out when RALGAPA1 isoform 6 (UniProt Q6GYQ0) was run?
The log2 fold change was inactive: -0.068.

With RAB5C isoform 2 (UniProt P51148) as the target, how does the log2 fold change read?
Its log2 fold change is inactive: -0.029.

Which log2 fold change does the source give for RAN (UniProt P62826) here?
Its log2 fold change is inactive: -0.022.

With RBBP4 (UniProt Q09028) as the target, how does the log2 fold change read?
The log2 fold change was inactive: -0.013.

With RB1CC1 (UniProt Q8TDY2) as the target, how does the log2 fold change read?
Its log2 fold change is inactive: 0.161.

How did the log2 fold change turn out when RANBP1 (UniProt P43487) was run?
Its log2 fold change is inactive: -0.106.

With RAB31 (UniProt Q13636) as the target, how does the log2 fold change read?
The log2 fold change was inactive: -0.035.

Which log2 fold change does the source give for RBM27 (UniProt Q9P2N5) here?
The log2 fold change was inactive: 0.025.

Compound: CCCS(=O)(=O)Nc1ccc(F)c(C(=O)c2c[nH]c3ncc(-c4ccc(Cl)cc4)cc23)c1F [vemurafenib]
Test: as above
Summary of the method: as §1

RALB isoform 2 (UniProt P11234) was tested. Which log2 fold change did it give?
The log2 fold change was inactive: 0.003.

RACK1 (UniProt P63244) was tested. Which log2 fold change did it give?
Its log2 fold change is inactive: 0.016.

With RAB11A (UniProt P62491) as the target, how does the log2 fold change read?
The log2 fold change was inactive: -0.074.

For RAB3A (UniProt P20336), which log2 fold change is on record?
Its log2 fold change is inactive: -0.19.

RABGGTB (UniProt P53611) was tested. Which log2 fold change did it give?
The log2 fold change was inactive: 0.036.

Which log2 fold change does the source give for RAP1A (UniProt P62834) here?
Its log2 fold change is inactive: 0.051.

How did the log2 fold change turn out when RAP1GDS1 isoform 5 (UniProt P52306) was run?
Its log2 fold change is inactive: -0.014.

Which log2 fold change does the source give for RANBP9 (UniProt Q96S59) here?
Its log2 fold change is inactive: 0.012.

With RAB8B (UniProt Q92930) as the target, how does the log2 fold change read?
The log2 fold change was inactive: 0.192.

With RAB9A (UniProt P51151) as the target, how does the log2 fold change read?
Its log2 fold change is inactive: -0.012.

RAPGEF2, A0A2R8YGD3 was tested. Which log2 fold change did it give?
The log2 fold change was inactive: -0.138.

For RBM22 (UniProt Q9NW64), which log2 fold change is on record?
Its log2 fold change is inactive: 0.003.

How did the log2 fold change turn out when RACK1 (UniProt D6RF23) was run?
The log2 fold change was inactive: -0.108.

For RABAC1 (UniProt Q9UI14), which log2 fold change is on record?
The log2 fold change was inactive: -0.009.

How did the log2 fold change turn out when RBM25 (UniProt P49756) was run?
The log2 fold change was inactive: 0.019.

RAB2B (UniProt Q8WUD1) was tested. Which log2 fold change did it give?
Its log2 fold change is inactive: 0.023.

How did the log2 fold change turn out when RAB3IL1 (UniProt Q8TBN0) was run?
Its log2 fold change is inactive: 0.018.

For RB1 (UniProt P06400), which log2 fold change is on record?
The log2 fold change was inactive: -0.01.

How did the log2 fold change turn out when RAB4B isoform 2 (UniProt P61018) was run?
The log2 fold change was inactive: 0.029.

How did the log2 fold change turn out when RAD18 (UniProt Q9NS91) was run?
The log2 fold change was inactive: 0.154.

How did the log2 fold change turn out when RBM3 (UniProt P98179) was run?
The log2 fold change was inactive: 0.008.

How did the log2 fold change turn out when RAD21 (UniProt O60216) was run?
The log2 fold change was inactive: 0.024.

With RAB14 (UniProt P61106) as the target, how does the log2 fold change read?
The log2 fold change was inactive: 0.001.

RAD1 (UniProt O60671) was tested. Which log2 fold change did it give?
Its log2 fold change is inactive: -0.086.

For RAB6D (UniProt Q53S08), which log2 fold change is on record?
The log2 fold change was inactive: -0.016.

RALGAPA1 isoform 6 (UniProt Q6GYQ0) was tested. Which log2 fold change did it give?
Its log2 fold change is inactive: 0.022.

With RAB5C isoform 2 (UniProt P51148) as the target, how does the log2 fold change read?
The log2 fold change was inactive: 0.015.

Which log2 fold change does the source give for RAN (UniProt P62826) here?
The log2 fold change was inactive: -0.026.

How did the log2 fold change turn out when RBBP4 (UniProt Q09028) was run?
The log2 fold change was inactive: -0.023.

For RB1CC1 (UniProt Q8TDY2), which log2 fold change is on record?
The log2 fold change was inactive: -0.022.

With RANBP1 (UniProt P43487) as the target, how does the log2 fold change read?
The log2 fold change was inactive: 0.002.

RAB31 (UniProt Q13636) was tested. Which log2 fold change did it give?
Its log2 fold change is inactive: -0.016.

With RBM27 (UniProt Q9P2N5) as the target, how does the log2 fold change read?
The log2 fold change was inactive: -0.008.
